These are yes or no findings as the source states them, for the method shown. Binding seen in cells or lysates may run through a third protein. Some binding calls cover weakened binding; strength is not graded here. Tags and fused reporters may be left off the sequences shown.
Molecular target: HIF-1α (HA-HIF-1α) (UniProt Q16665)
Experiment: co-IP; A549 cells transfected with HA-HIF-1α and Flag-ZFP91 plasmids; lysate in immunoprecipitation buffer incubated with agarose beads and specific antibody at 4°C for 12 h; either Flag-ZFP91 or HA-HIF-1α precipitated; Western blot; with and without CuB (CuB attenuated the interaction)

The chains behind the UniProt entries cited, without tags or fusion partners.
UniProt Q16665: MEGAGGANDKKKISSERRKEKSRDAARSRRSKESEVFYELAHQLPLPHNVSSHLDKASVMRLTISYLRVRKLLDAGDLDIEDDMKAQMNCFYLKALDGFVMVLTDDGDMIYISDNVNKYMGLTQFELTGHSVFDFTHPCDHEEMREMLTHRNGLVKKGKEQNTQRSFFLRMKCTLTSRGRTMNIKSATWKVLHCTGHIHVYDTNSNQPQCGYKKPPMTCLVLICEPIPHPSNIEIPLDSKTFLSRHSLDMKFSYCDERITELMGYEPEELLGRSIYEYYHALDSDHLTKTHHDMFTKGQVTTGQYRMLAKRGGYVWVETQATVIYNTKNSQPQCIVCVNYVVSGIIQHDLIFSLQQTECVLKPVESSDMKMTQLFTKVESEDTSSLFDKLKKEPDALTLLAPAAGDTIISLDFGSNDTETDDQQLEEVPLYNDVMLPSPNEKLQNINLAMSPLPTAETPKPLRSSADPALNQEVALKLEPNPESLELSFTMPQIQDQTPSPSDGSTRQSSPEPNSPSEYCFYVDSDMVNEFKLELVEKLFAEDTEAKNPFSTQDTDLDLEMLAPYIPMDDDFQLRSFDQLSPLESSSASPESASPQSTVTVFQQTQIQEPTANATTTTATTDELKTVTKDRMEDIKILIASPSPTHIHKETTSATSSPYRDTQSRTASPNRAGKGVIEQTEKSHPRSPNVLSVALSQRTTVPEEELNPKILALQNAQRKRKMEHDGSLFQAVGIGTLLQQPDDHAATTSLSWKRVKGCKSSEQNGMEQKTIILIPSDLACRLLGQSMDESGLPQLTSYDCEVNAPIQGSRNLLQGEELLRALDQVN

binding: binds
B1: Zinc finger protein 91 (Flag-ZFP91) (protein, UniProt Q96JP5 1-570)
chain: MPGETEEPRPPEQQDQEGGEAAKAAPEEPQQRPPEAVAAAPAGTTSSRVLRGGRDRGRAAAAAAAAAVSRRRKAEYPRRRRSSPSARPPDVPGQQPQAAKSPSPVQGKKSPRLLCIEKVTTDKDPKEEKEEEDDSALPQEVSIAASRPSRGWRSSRTSVSRHRDTENTRSSRSKTGSLQLICKSEPNTDQLDYDVGEEHQSPGGISSEEEEEEEEEMLISEEEIPFKDDPRDETYKPHLERETPKPRRKSGKVKEEKEKKEIKVEVEVEVKEEENEIREDEEPPRKRGRRRKDDKSPRLPKRRKKPPIQYVRCEMEGCGTVLAHPRYLQHHIKYQHLLKKKYVCPHPSCGRLFRLQKQLLRHAKHHTDQRDYICEYCARAFKSSHNLAVHRMIHTGEKPLQCEICGFTCRQKASLNWHMKKHDADSFYQFSCNICGKKFEKKDSVVAHKAKSHPEVLIAEALAANAGALITSTDILGTNPESLTQPSDGQGLPLLPEPLGNSTSGECLLLEAEGMSKSYCSGTERVSLMADGKIFVGSGSSGGTEGLVMNSDILGATTEVLIEDSDSAGP
